# Screen size: about 400,000 compounds; about 13,000 (3.2%) were called active. This list was built around the results that the source calls inconclusive (neither active nor inactive); the mix of calls is not that of the screen. The call rests on the fitted dose curve; in most records, active means well fitted cell-killing curve with a large enough effect; inconclusive means small, poorly fitted or top-dose-only effect, or effect the other way; inactive means flat fitted curve, though single readings scatter. Potencies of inconclusive entries are doubtful fits and often do not repeat. More than one record can exist for a structure, and the calls need not agree.
# Test: qHTS assay for MDR1-selective chemotherapeutics: Primary screen using the drug-selected MDR subline cells KB-V1; further: nearly all actives have a fitted effect of over 60% in size
# Details: KB-V1 MDR cells viability, CellTiter-Glo, 72 h; activity change, negative = cytotoxicity: at 46.1 µM (top of the series)
# Excerpt: A prime difficulty in effectively treating cancer is the development of cellular resistance to multiple structurally unrelated anticancer drugs, a phenomenon known as multidrug resistance (MDR). […] Numerous strategies to overcome P-gp-mediated MDR have been explored, including the design of drugs that evade recognition and efflux, and development of inhibitors to block efflux and restore drug accumulation. […] An alternative approach is to exploit resistance by identifying drugs that target MDR cells over the non-resistant parental cells from which they were selected. […] The development of MDR1-selective agents represents a new strategy for resolving multidrug resistance, as it remains a long-standing clinical challenge for cancer chemotherapy.
# Our goal is to identify compounds that selectively kill P-gp-expressing MDR cells. We will identify MDR1-selective compounds by comparing toxicity of compounds in the screening library against parental, drug-naive (KB-3-1) adenocarcinoma cells as well as their drug-selected MDR sub-line (KB-V1). The differential toxicity of compounds against these two cell lines will be used to identify MDR1-selective compounds, whose cytotoxicity is potentiated, rather than diminished, by P-gp expression. This assay will be utilized to conduct a quantitative high-throughput screen (qHTS) in collaboration with the NIH Chemical Genomics Center to identify selective agents, and probe hits arising from the screen will be validated using secondary assays and characterized through a well-established follow-up research program. This screen was run against the entire NCGC library collection of about 400,000 compounds.
# NIH Molecular Libraries Probe Production Network [MLPCN]
# NIH Chemical Genomics Center [NCGC]
# PI: Michael Gottesman, National Cancer Institute, NIH
# Briefly, 5 microL of media containing either KB-V1 cells (columns 1-2, 4-48) are dispensed into Greiner white, treated solid-bottom 1536-well assay plates (media-only control is added to column 3). Compounds are then transferred via Kalypsys pin tool equipped with 1536-pin array (10 nL slotted pins, V&P Scientific, San Diego, CA). Following addition of compound, the plates are incubated at 37 degrees C for 72 hours. CellTiter-Glo (2.5 µL/well) is then added, and the plates are read in a ViewLux reader (Perkin-Elmer, clear luminescence filter, 1 second exposure, 1x binning) following a 10 minute incubation. All cells are dispensed in DMEM phenol-red free media containing 10% FBS.
# Library plates were screened starting from the lowest and proceeding to the highest concentration. Vehicle-only plates, with DMSO being pin-transferred to columns 5-48, will be inserted uniformly at the beginning and the end of each library in order to monitor and record any shifts in the background, which can be affected by reagent dispensers or loss in enzyme activity over time. Screening data will be corrected, normalized, and concentration-effect relationships will be derived by using publicly-available NCGC, NCATS curve fitting algorithms (http://ncgc.nih.gov/pub/openhts).
# On the % scale 0 is the no-effect control and ±100 the full control effect; potency means the concentration at half of the fitted maximal effect.
Structure (SMILES),Potency,"activity change, negative = cytotoxicity"
O=C(NCC1CCCO1)c1cc2c([nH]c3ccccc32)c(-c2cccc(Cl)c2)n1 (stereo not drawn),"inconclusive: 29.1 µM [cytotoxic, single point]",
Cc1nc2ccccc2n1CCC(=O)Nc1cccc(F)c1,"inconclusive: 20.6 µM [cytotoxic, single point]",
O=C(NCc1ccccc1Cl)c1ccc(CS(=O)Cc2ccc(Cl)cc2)o1 (stereo not drawn),,inconclusive: 3.09%
CCOc1ccc(N/C(=N/c2nc(C)cc(C)n2)NC(C)=O)cc1,,inconclusive: -32.1% [cytotoxic]
CCOc1cc(/C=C(\C#N)C(=O)Nc2ccc(C)cc2)ccc1OCc1cc(=O)n2nc(CC)sc2n1,inactive,
CCOc1ccc(NC(=O)c2c(NC(=O)c3ccccc3F)sc3c2CCC3)cc1,inactive,
Cc1cc(C)cc(C(=O)NC(CC(N)=O)c2ccc(NC3CCCCC3)c([N+](=O)[O-])c2)c1 (stereo not drawn),"inconclusive: 29.1 µM [cytotoxic, single point]",
O=C(NCC(c1ccco1)N1CCc2ccccc2C1)c1ccc(F)cc1 (stereo not drawn),"inconclusive: 32.6 µM [cytotoxic, single point]",
OCCN(CCO)c1ncnc2c1oc1ccc(Br)cc12,"inconclusive: 16.4 µM [cytotoxic, single point]",
COc1ccc(NC2c3ncccc3C(=O)N2Cc2ccccc2)c(OC)c1 (stereo not drawn),inactive,
COc1cccc(CN(C)C(=O)CNC(=O)c2ccc3c(c2)OCO3)c1OC,"inconclusive: 10.3 µM [cytotoxic, partial curve, poor fit]",
C=CCN1C(=O)/C(=C/c2ccc(OC(C)=O)c(OCC)c2[N+](=O)[O-])SC1=S,"inconclusive: 23.1 µM [cytotoxic, single point]",
Cc1ccc(SCCN2CCC(O)CCC2=O)cc1 (stereo not drawn),inactive,
COC(=O)[C@@]1(Cc2ccc(F)cc2)[C@H]2c3cc(C(=O)N(C)C)n(Cc4ccc(Cl)c(C(F)(F)F)c4)c3C[C@H]2CN1C(=O)c1ccccc1,"inconclusive: 16.4 µM [cytotoxic, partial curve]",
O=C(Nc1cccc2ncccc12)c1ccc(-c2ccc(Br)cc2)o1,active: 10.3 µM,
CCN(CC1COc2ccccc2O1)C(=S)NC1CC2CCC1C2 (stereo not drawn),"inconclusive: 29.1 µM [rising, single point]",
Cc1cc(OC(C)C)nc(NCc2ccccc2)n1,inactive,
CCc1ccc(OC)c(S(=O)(=O)Nc2ccc(Cc3ccncc3)cc2)c1,"inconclusive: 14.6 µM [cytotoxic, partial curve, poor fit]",
COc1ccc(CN(C)C(=O)Cc2ccc(S(=O)(=O)N3CCOCC3)s2)cc1OC,inactive,
CCCc1cc(NCC2CCCO2)n2c(nc3ccccc32)c1C#N (stereo not drawn),"inconclusive: 23.1 µM [cytotoxic, single point]",
COc1ccccc1/C=C/C(=O)OCC(=O)N1CCc2ccccc21,"inconclusive: 0.092 µM [rising, full curve]",
O=C(Cc1ccc(Br)cc1)Nc1nc2ccccc2[nH]1,inactive,
Cc1ccc(N/C(N)=N/c2nc(C)cc(N3CCCCC3)n2)c(C)c1,active: 10.3 µM,

Structure (SMILES),Potency,"activity change, negative = cytotoxicity"
COc1cccc(Cn2c(SCC(=O)N(C)c3ccccc3)nc3ccccc32)c1,"inconclusive: 13 µM [cytotoxic, partial curve, poor fit]",
Cc1cc(NC(=O)CSc2nccn2-c2ccc(F)cc2)no1,"inconclusive: 29.1 µM [cytotoxic, single point]",
Cc1ccc(C(=O)Nc2ccccc2C(=O)NCc2ccco2)cc1,"inconclusive: 18.4 µM [cytotoxic, single point]",
COc1ccc(CN(C)S(=O)(=O)c2c(C)noc2C)cc1OC,active: 18.4 µM,
Cc1ncoc1C(=O)NC1CC(C)(C)Cc2c1cnn2-c1ccccc1 (stereo not drawn),"inconclusive: 16.4 µM [cytotoxic, partial curve]",
Cc1ccc(-c2nc(CS(=O)(=O)CC(=O)NCc3ccc(Cl)cc3)c(C)o2)cc1,inactive,
COc1ccc(C)cc1S(=O)(=O)NCc1ccccn1,inactive,
CC1CCC(Nc2nnnn2-c2ccccc2)CC1 (stereo not drawn),"inconclusive: 16.4 µM [cytotoxic, single point]",
CC(NC(=O)CCc1ccccc1)c1cc2c(cc1Cl)OCCO2 (stereo not drawn),active: 20.6 µM,
CCc1c(C)c2ccc(O)c(CN3CCN(c4ccc(OC)cc4)CC3)c2oc1=O,"inconclusive: 20.6 µM [cytotoxic, partial curve, poor fit]",
O=C(COc1ccc(C(=S)N2CCCC2)cc1)Nc1ccccc1C(F)(F)F,"inconclusive: 13 µM [cytotoxic, partial curve]",
C=CCOc1ccccc1CNCCNC(=O)c1nonc1N,"inconclusive: 13 µM [cytotoxic, partial curve]",
O=C(CN1CCC(C(=O)c2ccc(F)cc2)CC1)Nc1ccccc1,active: 4.61 µM,
Cc1ccccc1[C@@H]1C(C#N)=C(N)S[C@H]1C(=O)c1ccccc1,"inconclusive: 18.4 µM [cytotoxic, single point]",
Cc1cccc(-n2c(Cc3ccccc3)nnc2SCc2ccc([N+](=O)[O-])cc2)c1,active: 7.31 µM,
Cc1ccccc1CNC(=O)c1ccc(CSc2nc3cccnc3n2Cc2ccccc2)cc1,"inconclusive: 13 µM [cytotoxic, partial curve, poor fit]",
O=C(CN1CCSc2ccccc21)N1CCCCC1,inactive,
CCN(CC)C(=O)c1ccc(S(=O)(=O)NCc2cccnc2)cc1,"inconclusive: 23.1 µM [cytotoxic, single point]",
CCc1ccc(-c2nn(CC(=O)NCc3ccccc3)c3c2cnc2ccc(C)cc23)cc1,"inconclusive: 11.6 µM [rising, partial curve, poor fit]",
CN1C(=O)/C(=C/c2cccc(Cl)c2)Sc2ccc(C(=O)N3CCCC3)cc21,"inconclusive: 32.6 µM [rising, single point]",
O=S(=O)(c1ccc(Cl)cc1)N1CCC(n2cnc3cc(C(F)(F)F)ccc32)CC1,"inconclusive: 16.4 µM [cytotoxic, partial curve, poor fit]",
CCCN(C(=O)COc1cc(=O)n(CC)c2ccccc12)c1ccc(C(C)C)cc1,active: 13 µM,
COc1cc(NC(=O)c2cc([N+](=O)[O-])ccc2NC(=O)CNCc2ccccn2)cc(OC)c1,"inconclusive: 2.59 µM [cytotoxic, partial curve, poor fit]",

Structure (SMILES),Potency,"activity change, negative = cytotoxicity"
CCOC(=O)c1c(NC(=O)c2cc3nc(-c4ccccc4)cc(C(F)(F)F)n3n2)sc2c1CCC(C)C2 (stereo not drawn),inactive,
CCOc1cc(S(=O)(=O)N2CCN(C(=O)c3ccco3)CC2)ccc1F,"inconclusive: 9.2 µM [cytotoxic, partial curve]",
Cc1noc(C)c1NC(=O)N(C)C[C@H]1Oc2c(NC(=O)c3ccncc3)cccc2C(=O)N([C@H](C)CO)C[C@@H]1C,"inconclusive: 29.1 µM [rising, partial curve, poor fit]",
CCN(CC)C(=O)CSc1nnc(-c2ccccc2)c(-c2ccccc2)n1,active: 3.26 µM,
O=C(Cn1c(=O)n(Cc2ccco2)c(=O)c2ccccc21)Nc1cccc(Cl)c1,"inconclusive: 14.6 µM [cytotoxic, partial curve, poor fit]",
CC1(c2nnc(-c3cccc(Cl)c3)o2)CC(c2ccccc2Br)=NO1 (stereo not drawn),inactive,
Cc1cc(C)n(CCC(=O)N/N=C/c2ccccc2O)n1,active: 8.2 µM,
COc1ccc(NC(=O)c2cccnc2Cl)c(S(=O)(=O)N2CCOCC2)c1,inactive,
O=C(CCS(=O)(=O)c1ccc(Cl)cc1)N1CCN(c2ccccc2F)CC1,"inconclusive: 18.4 µM [cytotoxic, single point]",
O=c1c(-c2ccc3c(c2)OCCO3)c(C(F)(F)F)oc2cc(O)cc(O)c12,"inconclusive: 16.4 µM [cytotoxic, single point]",
Cc1ccccc1C(=O)OCc1cc(=O)n2c(C)csc2n1,"inconclusive: 14.6 µM [cytotoxic, partial curve, poor fit]",
Cc1ccc(-c2nc(C(=O)NCC3CCCO3)cc3c2[nH]c2ccccc23)cc1 (stereo not drawn),"inconclusive: 18.4 µM [cytotoxic, single point]",
O=C(CCCCCNC(=O)N1CCn2c1nc1ccccc12)NCc1ccc(Cl)cc1,inactive,
O=C1NC(c2cn(-c3ccccc3)nc2-c2cccs2)C(C(=O)c2cccnc2)C(O)(C(F)(F)F)N1 (stereo not drawn),"inconclusive: 10.3 µM [rising, partial curve, poor fit]",
S=c1[nH]c2cnccc2n1Cc1ccccc1,inactive,
CCCCNC(=O)/C(C#N)=C/c1ccc(-c2ccc(S(=O)(=O)N3CCOCC3)cc2)o1,"inconclusive: 8.2 µM [cytotoxic, partial curve]",
C=CCN=c1scc(-c2ccccc2)n1/N=C/c1ccccn1,active: 7.31 µM,
O=C(CN(c1cccc([N+](=O)[O-])c1)S(=O)(=O)c1ccccc1)N1CCCCC1,"inconclusive: 29.1 µM [cytotoxic, single point]",
COc1ccc(N2CC(C(=O)N3CCc4ccccc43)CC2=O)cc1 (stereo not drawn),"inconclusive: 16.4 µM [cytotoxic, single point]",
CC(=O)NCCNC(=O)c1ccc(NC2=NC3CS(=O)(=O)CC3S2)cc1 (stereo not drawn),inactive,
COc1cc(-c2cc(C(=O)Nc3cc(S(=O)(=O)N4CCOCC4)ccc3C)c3ccccc3n2)cc(OC)c1OC,"inconclusive: 2.06 µM [cytotoxic, partial curve, poor fit]",
O=C(Cn1cnc2c(cnn2-c2ccc(F)cc2)c1=O)N1CCN(c2ccccc2F)CC1,active: 3.66 µM,

# Among those listed so far, these contain a Cl atom:
Structure (SMILES),Potency,"activity change, negative = cytotoxicity"
O=C(NCC1CCCO1)c1cc2c([nH]c3ccccc32)c(-c2cccc(Cl)c2)n1 (stereo not drawn),"inconclusive: 29.1 µM [cytotoxic, single point]",
O=C(NCc1ccccc1Cl)c1ccc(CS(=O)Cc2ccc(Cl)cc2)o1 (stereo not drawn),,inconclusive: 3.09%
COC(=O)[C@@]1(Cc2ccc(F)cc2)[C@H]2c3cc(C(=O)N(C)C)n(Cc4ccc(Cl)c(C(F)(F)F)c4)c3C[C@H]2CN1C(=O)c1ccccc1,"inconclusive: 16.4 µM [cytotoxic, partial curve]",
Cc1ccc(-c2nc(CS(=O)(=O)CC(=O)NCc3ccc(Cl)cc3)c(C)o2)cc1,inactive,
CC(NC(=O)CCc1ccccc1)c1cc2c(cc1Cl)OCCO2 (stereo not drawn),active: 20.6 µM,
CN1C(=O)/C(=C/c2cccc(Cl)c2)Sc2ccc(C(=O)N3CCCC3)cc21,"inconclusive: 32.6 µM [rising, single point]",
O=S(=O)(c1ccc(Cl)cc1)N1CCC(n2cnc3cc(C(F)(F)F)ccc32)CC1,"inconclusive: 16.4 µM [cytotoxic, partial curve, poor fit]",
O=C(Cn1c(=O)n(Cc2ccco2)c(=O)c2ccccc21)Nc1cccc(Cl)c1,"inconclusive: 14.6 µM [cytotoxic, partial curve, poor fit]",
CC1(c2nnc(-c3cccc(Cl)c3)o2)CC(c2ccccc2Br)=NO1 (stereo not drawn),inactive,
COc1ccc(NC(=O)c2cccnc2Cl)c(S(=O)(=O)N2CCOCC2)c1,inactive,
O=C(CCS(=O)(=O)c1ccc(Cl)cc1)N1CCN(c2ccccc2F)CC1,"inconclusive: 18.4 µM [cytotoxic, single point]",
O=C(CCCCCNC(=O)N1CCn2c1nc1ccccc12)NCc1ccc(Cl)cc1,inactive,

# As a short view, part of the list above:
Structure (SMILES),Potency,"activity change, negative = cytotoxicity"
O=c1c(-c2ccc3c(c2)OCCO3)c(C(F)(F)F)oc2cc(O)cc(O)c12,"inconclusive: 16.4 µM [cytotoxic, single point]",
Cc1ccccc1C(=O)OCc1cc(=O)n2c(C)csc2n1,"inconclusive: 14.6 µM [cytotoxic, partial curve, poor fit]",
